System: gamma secretase
Assay: Aβ production from C99GVP and mutant or chimeric substrates in transfected HEK cells (ELISA, IP/Western blot)
Format: cell-based, Human
Conditions: conditioned media
Text: Plasmid Construction of JMD Chimeric Substrates: A pcDNA3.1-C99 plasmid similar to the previously described SPA4CT-LE construct (Dyrks, et al., FEBS Lett., 1992; 309: 20-24) was generated by standard PCR techniques. The APP signal peptide was fused to the N-terminus of the C99 fragment via a dipeptide leucine-glutamic acid (LE) linker. The strategy used to generate the pcDNA3.1-C99GVP construct was similar to a previously described method (Karlstrom, H., et al., J. Biol. Chem., 2002; 277: 6763-6766). (See, generally, FIG. 3). Briefly, an AscI site was introduced immediately 3′ of the nucleotides encoding the triple-lysine (K) membrane anchor of C99, where the GVP coding sequence was subsequently inserted in frame (to the C-terminal side of the lysine membrane anchor sequence of C99). […] All three chimeras were constructed by using a two-stage PCR method with two pairs of overlapping primers (for list of primers, see Table I). These chimeric substrates were characterized to assess activity as gamma secretase substrates and subsequent production and secretion of Aβ and AICD (FIGS. 6-7). […] The C99GVP-SLSS quadruple JMD chimera was also constructed with the same PCR method. Point mutations within the luminal juxtamembrane domain (i.e., C99GVP-G25S, S26L, N27S and K28S; FIGS. 2 and 9A-D) were generated using QuikChange (Stratagene) site-directed mutagenesis kit according to the manufacturer's instructions. All cDNAs were verified by sequencing. […]
Cell Culture and Transient Transfection: Human embryonic kidney 293 (HEK 293) cells (ATCC) were grown in Dulbecco's Modified Eagle Medium with High Glucose (DMEM, obtained from Gibco/Invitrogen, Cat #11960) supplemented with 10% fetal bovine serum (Hyclone, SV 30014.03) and 50 units/ml penicillin and streptomycin (37° C., 5% CO2). […] At the time of seeding, viability of cells was greater than 95% as determined using a Vi-Cell Analyzer (Beckman-Coulter). Confluence of cells on plates was kept at greater than 95% during all phases of the experiment as determined with a standard tissue culture inverted microscope. […]

“C99GVP: 99 amino acid C-terminal fragment of APP with Gal4-VP16 domain inserted in-frame (SEQ ID NO:47)” was tested, and the “Aβ42 fraction of the total Aβ” value was 15.7±2.5%, the “secreted Aβ40” value (ELISA, FIG. 5D) was 210.8 ± 19.2 µM and the “secreted Aβ42” value (ELISA, FIG. 5D) was 39.1 ± 6.4 µM.

Reference: patent US20110306071A1, “Compositions and Methods for Identifying Substrate Specificity of Inhibitors of Gamma Secretase” (ELAN PHARMACEUTICALS, INC., priority 2007, published 2011)
